Laboratory results: PubChem BioAssay AID504774 (Drosophila RNAi Screening Center, 2011)
The screen tested about 23,000 reagents; below is a random part of those with a known target gene and a result. 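Values are quantile-normalised luminescence on an arbitrary scale; higher means more cells surviving MMS.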 A plus sign joins genes that one reagent is predicted to hit. Not all columns of the deposit are shown.

Test: 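Fly genes whose loss alters survival after alkylation damage to DNA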 (primary screen)
Cells: Drosophila Kc167 cells
Knock-down reagent: long dsRNA against Drosophila genes, about 0.25 µg dsRNA per well
Time to read-out: about 6 days: 3 days knock-down, then 3 days with or without MMS
Treatment: methyl methanesulphonate 0.004% (w/v) for 3 days after knock-down
Measurement: 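ATP-dependent luminescence as a measure of live cells in MMS-exposed wells, quantile normalised within each plate, with replicate values also given as a mean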
Scale: mean viability with MMS and viability with MMS: higher = more surviving cells after MMS

The opening 2 records as a preview:
Listericin [DRSC07334]
- mean viability with MMS: 3.57e6
- viability with MMS, replicate 1: 3.78e6

Hexo2 [DRSC18671]
- mean viability with MMS: 3.44e6
- viability with MMS, replicate 1: 3.90e6

The listing, from the first entry:
Listericin [DRSC07334]
- mean viability with MMS: 3.57e6
- viability with MMS, replicate 1: 3.78e6

Hexo2 [DRSC18671]
- mean viability with MMS: 3.44e6
- viability with MMS, replicate 1: 3.90e6

CG13720 [DRSC08329]
- mean viability with MMS: 3.39e6
- viability with MMS, replicate 1: 3.80e6

kl-5 (retired record) [DRSC20707]
- mean viability with MMS: 3.61e6
- viability with MMS, replicate 1: 4.14e6

kl-5 (retired record) [DRSC20736]
- mean viability with MMS: 2.42e6
- viability with MMS, replicate 1: 4.10e6

kl-5 (retired record) [DRSC20773]
- mean viability with MMS: 2.35e6
- viability with MMS, replicate 1: 3.89e6

kl-5 (retired record) [DRSC21161]
- mean viability with MMS: 3.39e6
- viability with MMS, replicate 1: 3.88e6

CG31224 [DRSC15272]
- mean viability with MMS: 1.75e6
- viability with MMS, replicate 1: 3.97e6

CG31224 [DRSC16290]
- mean viability with MMS: 3.34e6
- viability with MMS, replicate 1: 3.79e6

CG14607 [DRSC12551]
- mean viability with MMS: 3.41e6
- viability with MMS, replicate 1: 3.86e6

CG15879 [DRSC08487]
- mean viability with MMS: 3.53e6
- viability with MMS, replicate 1: 4.01e6

CG31959 (retired record) [DRSC22912]
- mean viability with MMS: 3.27e6
- viability with MMS, replicate 1: 3.86e6

CG15731 [DRSC19698]
- mean viability with MMS: 3.50e6
- viability with MMS, replicate 1: 3.86e6

CG15731 [DRSC21820]
- mean viability with MMS: 3.46e6
- viability with MMS, replicate 1: 3.94e6

CG31089 [DRSC15934]
- mean viability with MMS: 3.66e6
- viability with MMS, replicate 1: 4.08e6

CG12590 [DRSC12216]
- mean viability with MMS: 3.48e6
- viability with MMS, replicate 1: 3.96e6

CG32111 (retired record) [DRSC09203]
- mean viability with MMS: 3.65e6
- viability with MMS, replicate 1: 4.15e6

CG6592 [DRSC10669]
- mean viability with MMS: 3.58e6
- viability with MMS, replicate 1: 4.05e6

Spn31A [DRSC02780]
- mean viability with MMS: 3.48e6
- viability with MMS, replicate 1: 3.87e6

CG14629 [DRSC18476]
- mean viability with MMS: 3.59e6
- viability with MMS, replicate 1: 4.14e6

aft [DRSC07576]
- mean viability with MMS: 3.57e6
- viability with MMS, replicate 1: 3.90e6

pip [DRSC11382]
- mean viability with MMS: 3.62e6
- viability with MMS, replicate 1: 4.19e6

CG6839 [DRSC10723]
- mean viability with MMS: 3.48e6
- viability with MMS, replicate 1: 3.94e6

bbx + waw [DRSC20575]
- mean viability with MMS: 3.49e6
- viability with MMS, replicate 1: 3.96e6

bbx + waw [DRSC20589]
- mean viability with MMS: 3.51e6
- viability with MMS, replicate 1: 4.03e6
